# Laboratory results taken from US20260315446A1, “ANTIFUNGAL COMPOUNDS AND USES THEREOF” (priority 2023, published 2026).
# Read-outs that look alike come from different tables or passages of the source.
# Tested on: C. neoformans growth versus IL-2 in murine T cells
# Experiment: Therapeutic index score (immunosuppressive fold change to antifungal fold change relative to FK506)
# Parameters: species or system Cryptococcus neoformans; mouse
# From the text: To assess the therapeutic potential for these compounds, it was important to develop an approach to score and rank them based on antifungal and immunosuppressive activities. The therapeutic index score (TIscore) is a ratio of the immunosuppressive fold change to the antifungal fold change, with all values relative to the baseline FK506 activity (FIG. 6B). A TIscore of >1.0 indicates an increase in fungal specificity because the fold change of the immunosuppressive reduction is greater than the antifungal activity reduction. As an example, JH-FK-05 is 20-fold reduced for antifungal activity but about 180-fold reduced for immunosuppression. Therefore, the TIscore of JH-FK-05 is 9.1 (TIscore=182/20). The top two analogs were JH-FK-02 (TIscore=9.7) and JH-FK-05 (TIscore=9.1). Due to the similar TIscore, JH-FK-05 was prioritized to advance to animal trials on the merit of more pronounced antifungal activity compared to JH-FK-02.
# Based on the in vitro fungal and mammalian calcineurin inhibition data, the panel of FK520 analogs was assessed and ranked. Therapeutic index (TI) scores were used to quantify the effects of structural modification on the compounds (Table 8). Therapeutic index scores were calculated for each analog as the ratio of relative change in immunosuppressive and antifungal activities compared to FK506 as previously utilized (see, I-Toy M J, et at. 2022. mBio 13:e0104922). This ratio of therapeutic benefit and host toxicity, or fungal and mammalian calcineurin inhibition, allowed us to quantify and rank these analogs. […] This is the greatest TI found within the library and allowed us to identify JH-FK-08 as a lead candidate for an in vivo study. Tolerability of JH-FK-08 was assessed by monitoring animal responses to drug dosing across 14 days, including changes in weight, fur condition, and behavior. A maximum dose of 40 mg/kg was tested in once a day dosing, and due to solubility limitations, the tolerability of JH-FK-08 at 60 and 80 mg/kg total daily doses was assessed by dosing two equal doses per day (FIG. 14). […] It should be noted that analogs JH-FK-12 and JH-FK-23 are also promising candidates with respective Tis of 24.7 and 24.5.
# [1] = Table 13, Example 4, FK506 = 1.0
# [2] = Example 3, C. neoformans H99, FK506 = 1.0
smiles,measurement,setting,value
"CC[C@@H]1/C=C(\C)C(O)[C@H](C)C[C@H](OC)[C@H]2O[C@@](O)(C(=O)C(=O)N3CCCC[C@H]3C(=O)O[C@H](/C(C)=C/[C@@H]3CC[C@@H](O)[C@H](OC)C3)[C@H](C)[C@@H](O)CC1=O)[C@H](C)C[C@@H]2OC (single isomer, unassigned) [JH-FK-11]",Therapeutic Index Score,"Table 12, Example 4, FK506 = 1.0",11.8
same,Therapeutic Index Score,[1],11.8
"CC[C@@H]1/C=C(\C)C[C@H](C)C[C@H](OC)[C@H]2O[C@@](O)(C(=O)C(=O)N3CCCC[C@H]3C(=O)O[C@H](/C(C)=C/[C@@H]3CC[C@@H](O)[C@H](OC)C3)[C@H](C)[C@@H](O)CC1=O)[C@H](C)C[C@@H]2OC [FK520, reference compound]",Therapeutic Index Score,,4.4
same,Therapeutic index,,3.3
CC[C@@H]1/C=C(\C)C[C@H](C)C[C@H](OC)[C@H]2O[C@@](O)(C(=O)C(=O)N3CCCC[C@H]3C(=O)O[C@H](/C(C)=C/[C@@H]3CC[C@@H](O)[C@H](OC)C3)[C@H](C)[C@@H](O)C/C1=N/NC(C)=O)[C@H](C)C[C@@H]2OC [JH-FK-05],therapeutic index score (TIscore),"Example 1, C. neoformans MIC and IL-2 IC50, FK506 = 1.0",9.1
same,Therapeutic Index Score,[1],9.1
CC[C@@H]1/C=C(\C)C[C@H](C)C[C@H](OC)[C@H]2O[C@@](O)(C(=O)C(=O)N3CCCC[C@H]3C(=O)O[C@H](/C(C)=C/C3CC[C@@H](O)[C@H](OC)C3)[C@H](C)[C@@H](O)C/C1=N/NC(=O)OC)[C@H](C)C[C@@H]2OC (stereo partly drawn) [JH-FK-08],Therapeutic index,[2],29.6
same,TIscore,Example 4 discussion,15.5
CC[C@@H]1/C=C(\C)C[C@H](C)C[C@H](OC)[C@H]2O[C@@](O)(C(=O)C(=O)N3CCCC[C@H]3C(=O)O[C@H](/C(C)=C/C3CC[C@@H](O)[C@H](OC)C3)[C@H](C)[C@@H](O)C/C1=N/NS(=O)(=O)c1ccc(C)cc1)[C@H](C)C[C@@H]2OC (stereo partly drawn) [JH-FK-13],Therapeutic index,[2],Undefined
